From paper PMC5643258
These are yes or no findings as the source states them, for the method shown. Some binding calls cover weakened binding; strength is not graded here. Where a sequence is shown, tags or fusion partners need not be part of it. Each block holds one binder with its values, some of them ahead of it.

What was measured:
[1] = molecular target: T1, Myc-[His]6-tagged ADAM9 ectodomain (ECTO-His), soluble mouse ADAM9 ectodomain (mouse) (UniProt Q61072); experiment: ELISA; one tagged ADAM9 ectodomain (ECTO-His or ECTO-Fc) coated at 2 ug/ml in 0.1 M Na2CO3 pH 9.8 overnight at 4 C on maxisorb plates; ADAM9 ectodomain with the other tag in solution for 1 h at RT in PBS, 1% Tween-20, 1% BSA, 1% milk powder; detected by tag-directed antibody and HRP secondary; both purified
T1 sequence: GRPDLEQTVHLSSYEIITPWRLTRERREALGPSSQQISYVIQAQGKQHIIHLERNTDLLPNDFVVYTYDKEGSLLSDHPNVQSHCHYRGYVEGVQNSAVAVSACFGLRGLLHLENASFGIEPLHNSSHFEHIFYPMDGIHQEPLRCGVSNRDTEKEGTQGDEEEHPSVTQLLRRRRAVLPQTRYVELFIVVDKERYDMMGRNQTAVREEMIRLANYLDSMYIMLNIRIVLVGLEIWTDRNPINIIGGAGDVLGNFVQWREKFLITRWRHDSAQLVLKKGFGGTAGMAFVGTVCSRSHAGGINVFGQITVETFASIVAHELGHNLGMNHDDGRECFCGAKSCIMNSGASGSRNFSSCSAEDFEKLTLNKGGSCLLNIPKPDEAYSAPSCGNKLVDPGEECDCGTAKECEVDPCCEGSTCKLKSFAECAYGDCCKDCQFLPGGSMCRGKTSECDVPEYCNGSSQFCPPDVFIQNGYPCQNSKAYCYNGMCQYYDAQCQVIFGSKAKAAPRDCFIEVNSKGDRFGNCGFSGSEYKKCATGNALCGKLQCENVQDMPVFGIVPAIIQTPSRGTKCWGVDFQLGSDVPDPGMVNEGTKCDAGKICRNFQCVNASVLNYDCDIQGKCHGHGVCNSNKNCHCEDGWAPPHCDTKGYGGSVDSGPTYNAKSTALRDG

[2] = molecular target: T2, ADAM9-Fc ectodomain (ECTO-Fc), soluble mouse ADAM9 ectodomain with C-terminal IgG Fc (mouse) (UniProt Q61072); experiment: as above
T2 sequence: T1 sequence

binding [1]: binds
B1: ADAM9-Fc ectodomain (ECTO-Fc), soluble mouse ADAM9 ectodomain with C-terminal IgG Fc (Fc fusion, UniProt Q61072 30-698)
chain: T1 sequence

binding [2]: binds
B2: Myc-[His]6-tagged ADAM9 ectodomain (ECTO-His), soluble mouse ADAM9 ectodomain (domain or fragment, UniProt Q61072 30-698)
chain: T1 sequence
